About 2,100 (0.66%) of roughly 320,000 compounds were called active. The inconclusive results got no clear call from the source; some entries with a clear call stand among them for comparison. Calls come from the whole dose curve; as a rule, active = well fitted inhibition curve with a large enough effect in the signal ratio, with a control signal flat (not every such curve was filed as active); inconclusive = small, poorly fitted or top-dose-only effect, or effect the other way, or a change in a side signal; inactive = flat fitted curve, though single readings scatter; the % refers to the signal ratio. Potencies beside an inconclusive call are fits to weak or partial responses and may not hold up.
Assay: qHTS Assay for Lipid Storage Modulators in Drosophila S3 Cells
Details: BODIPY lipid droplet fluorescence, 18-24 h, cells fed with added oleic acid; lipid storage change, negative = inhibition: at 46.1 µM (top of the series) unless noted
How it was run: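 Drosophila S3 cells loaded with oleic acid (400 uM, as added) and compounds at several concentrations; lipid droplets imaged by 488-nm laser-scanning cytometry, 500–530 nm intensity and object ratio to cell channel. Percent activity normalized to 20 uM Triacsin C.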
% is set by controls: 0 for no effect and ±100 for the full control effect; potency is the fitted concentration of half-maximal effect.

Structure (SMILES)	lipid storage change, negative = inhibition	Potency
COCCn1c(SCC(=O)Nc2ccc(C)cc2C)nc2c(oc3ccccc32)c1=O	inconclusive: 1.61%	
CC(C(=O)NCc1ccco1)n1nc(-c2ccccc2)c2cc(Cl)ccc21 (centres undefined)		inconclusive: 0.13 µM [falling, full curve, poor fit]
Oc1cccc(/C=N/N(Cc2ccccc2)c2ccccc2)c1	inconclusive: 7.69%	
O=C(Nc1ccccc1)c1cc2ccc3ccccc3c2s1	inconclusive: 25.6%	
CC1=C(C(N)=O)C(c2cccs2)n2nc(-c3cccc(C)c3)nc2N1 (centres undefined)	inconclusive: 1.55%	
COC(=O)CCC(=O)N1CCc2cc(S(=O)(=O)N3CCc4ccccc43)ccc21	inconclusive: -39.9% [at 0.0737 µM]	
CSCCC(NC(=O)c1ccccc1Br)C(=O)N1CCCCCCC1 (centres undefined)	inconclusive: -35.4%	
O=C(C1CCN(S(=O)(=O)c2cc(Cl)ccc2Cl)CC1)N1CCOCC1		inconclusive: 29.1 µM [activator, partial curve, poor fit]
Cc1ccc(OCC(=O)N2CCOCC2)cc1C		inconclusive: 0.92 µM [falling, full curve]
CC/C(=N/NC(=O)c1ccc(Br)o1)c1ccc(Cl)cc1	inconclusive: 24.9%	
O=C(COC(=O)[C@@H]1CCCN1C(=O)c1cccs1)NCCc1ccccc1	inconclusive: -37.4%	
COc1cccc(S(=O)(=O)Nc2ccc3sc(C)nc3c2)c1	inconclusive: -1.97%	
COCCNC(=O)CN(C(=O)Cn1nnc2ccccc21)c1ccc(C)c(F)c1	inactive: 9.15%	
COCCOC(=O)c1c(NC(=O)COC(=O)c2ccc(C)o2)sc(C(N)=O)c1C	inactive: -24.5%	
CSc1sc(C(=O)N(C)C)cc1S(=O)(=O)C(C)C		inconclusive: 3.26 µM [activator, single point]
CC(=O)C1=C(C)NC(SCC(=O)c2ccccc2)=C(C#N)C1c1ccco1 (centres undefined)	inconclusive: 7.37%	
CCOc1cc(N2CCOCC2)c(OCC)cc1NC(=O)c1ccc(F)c(S(=O)(=O)N2CCOCC2)c1	inconclusive	
COc1cc(CNCc2cccs2)ccc1OCC(N)=O	inconclusive: 7.62%	
C=CCn1c(N)c(C(=O)Nc2ccc(C)cc2)sc1=S	inconclusive: -3.46%	
Nc1ccc2oc(-c3cccs3)nc2c1	inconclusive: 20.8%	
COCCn1c(Cc2ccccc2)nnc1SCC(=O)N(C)C	inconclusive: -6.12%	
CNc1ncc(C(=O)c2ccc(-c3ccccc3)cc2)s1	inconclusive: 30.1%	
Cc1ccc(N2C(=O)CC(N3CCN(c4ccccn4)CC3)C2=O)cc1 (centres undefined)	inconclusive: 11.2%	
CC(C)CSC1=NSC2=NC(=O)/C(=C\c3ccccc3)C(=N)N12		inconclusive: 6.51 µM [falling, single point]
CCCCn1c(N)c(N(CCC(C)C)C(=O)c2ccc([N+](=O)[O-])s2)c(=O)[nH]c1=O	inconclusive: -11.6%	

Fetched by structure from the list above (three):
Structure (SMILES)	lipid storage change, negative = inhibition	Potency
CSc1sc(C(=O)N(C)C)cc1S(=O)(=O)C(C)C		inconclusive: 3.26 µM [activator, single point]
O=C(C1CCN(S(=O)(=O)c2cc(Cl)ccc2Cl)CC1)N1CCOCC1		inconclusive: 29.1 µM [activator, partial curve, poor fit]
COC(=O)CCC(=O)N1CCc2cc(S(=O)(=O)N3CCc4ccccc43)ccc21	inconclusive: -39.9% [at 0.0737 µM]	

Carrying on:

Structure (SMILES)	lipid storage change, negative = inhibition	Potency
CC(C)SC1=NC(C)(C)C=C(/C=C/c2c(Cl)cccc2Cl)N1		inconclusive: 0.231 µM [rising, full curve, poor fit]
S=C(NCc1ccc2c(c1)OCO2)Nc1ccc2nsnc2c1		inconclusive: 10.3 µM [activator, partial curve]
c1ccc(Cn2cc(CN3CCCO3)c(-c3ccc4c(c3)OCO4)n2)cc1	inconclusive: 12.3%	
COC(=O)c1cccc(NC(=O)c2cc3sccc3n2C)c1	inconclusive: 95.4%	
Cc1ncc(C[n+]2ccc(C)c(C)c2)c(N)n1	inconclusive: 16%	
Cc1ccccc1-c1nc(CS(=O)CC(=O)NCCCN(C)c2ccccc2)c(C)o1 (centres undefined)	inconclusive: 30.8%	
O=[N+]([O-])c1ccc2c(c1)OCCOCCOCCOCCOCCOCCO2	inconclusive: 9.74%	
Cc1cc(C(=O)COC(=O)c2ccc(N)c([N+](=O)[O-])c2)c(C)n1Cc1ccc2c(c1)OCO2		inconclusive: 0.326 µM [activator, full curve, poor fit]
Cc1cccc2cc(C#N)c(SCC(=O)N3CCC(C)CC3)nc12	inconclusive: 15.5%	
COc1ccccc1NC(=O)CSc1nn2c(=O)c(C)nnc2s1		inconclusive: 20.6 µM [activator, partial curve]
Cc1ccc(S(=O)(=O)Nc2ccc(S(=O)(=O)NCC3CCCO3)cc2)cc1 (centres undefined)		inconclusive: 0.651 µM [falling, single point]
O=C(NCCN1CCOCC1)C1CCN(c2ncnc3c2sc2cccc(F)c23)CC1	inconclusive: 5.1%	
CC(=O)Nc1ccc(-c2nnc(SCC(=O)n3c4c(c5ccccc53)CCCC4)n2C)cc1		inconclusive: 6.51 µM [rising, single point]
O=S(=O)(Cc1ccccc1)N1CCN(Cc2ccc3c(c2)OCO3)CC1	inconclusive: 97.8%	
COc1cccc(NC(=O)c2oc3ccccc3c2NC(C)=O)c1	inconclusive: -27.2%	
COc1ccc(CCNC(=O)c2cc(-c3ccccc3)c(N3CCOCC3)s2)c(OC)c1OC		inconclusive: 3.66 µM [falling, single point]
N#Cc1cccc(CN2CCCN(Cc3ccc(F)cc3)S2(=O)=O)c1		inconclusive: 3.26 µM [activator, full curve]
Cc1ccccc1OCCOc1cccc(/C=N/NC(=O)Cc2nnc(N)s2)c1		inconclusive: 29.1 µM [cytotoxic, single point]
COc1ccc([C@H]2CC(=O)C=C(c3cccc4c3Oc3ccccc3S4)C2)cc1	inconclusive: -18.9%	
O=C(Cc1ccccc1[N+](=O)[O-])OCN1C(=O)c2ccccc2C1=O	inconclusive: -42.2%	
NC(=O)CSc1nc(-c2ccccc2)nc2c1CCCC2	inconclusive: -0.456%	
COc1ccc(NC(=O)c2cc(C)no2)cc1	inconclusive: -77.9%	
COc1cc(C(=O)NC(C)c2ccc(S(N)(=O)=O)cc2)ccc1OCC(=O)N1CCOCC1 (centres undefined)	inactive: 29.2%	
CC(C)OCCCNC(=O)CN1CCN(Cc2ccc(Cl)cc2)C1=O		inconclusive: 0.206 µM [falling, full curve, poor fit]

Source: PubChem BioAssay AID2685 (National Center for Advancing Translational Sciences (NCATS), 2010)
